Patent US12448429B2, “T cell receptors specific to b-cell maturation antigen for treatment of cancer” (Dana-Farber Cancer Institute, Inc., priority 2019, dated 2025)
Some entries share one result that the patent states for a list of compounds.

Molecular target: T1, HLA-A2 (Homo sapiens, UniProt P04439, D140Y/D185E/D98H/E176V/E277Q/G131W/G231S/I119V/I121R/I166T/I218V/L300P/L318F/N151K/N90K/P208A/P217A/Q86G/Q94H/R138H/R169H/T345S)
T1 construct: endogenous in cells; host or cells: T2 cell line (human B and T cell hybrid), provided by Dr. J. Molldrem
Assay: Peptide/HLA-A2 binding stability on peptide-pulsed T2 cells after Brefeldin A treatment
Procedure: The native and heteroclitic BCMA peptides were examined for HLA-A2 binding stability using the T2 cell line. T2 cells were pulsed with the respective peptide. After overnight incubation, the cells were washed to remove unbound peptide; they were evaluated for binding affinity as shown above and stability as following. The cells were incubated with 10 μg/ml Brefeldin A (Sigma) at 37° C. and 5% CO2 for 1 hour to block cell surface expression of newly synthesized HLA-A2 molecules. Peptide/HLA-A2 binding stability was evaluated at 0, 2, 4, 6 and 18 hours post-Brefeldin A treatment. Following the incubation period, the cells were harvested, washed, stained with mouse anti-human HLA-A2-FITC mAb and analyzed by flow cytometry. […] Therefore, the Heteroclitic #4 BCMA72-80 (YLMFLLRKI (SEQ ID NO: 37)) peptide was selected for further evaluation of its immunogenic potential to generate MM-specific cytotoxic T cells (CTLs).
T2 cells were pulsed overnight with various doses of peptide plus β2-microglobulin (3 μg/ml) (Sigma, St Louis, Mo.). Following overnight incubation, the cells were stained with HLA-A2-PE mAb and analyzed using a FACSCanto™ flow cytometer (BD). Peptide/HLA-A2 complex stability was measured on peptide loaded T2 cells at 0, 2, 4, 6 and 14 hours post-brefeldin A treatment by staining with HLA-A2-PE mAb and flow cytometric analysis.

Row | Sequence | duration of HLA-A2 stability
1 | VLMFLLRKI [#4. BCMA72-80] | greater than 6 hours
2 | AILWTCLGL [#5. BCMA54-62] | greater than 6 hours
